The values that follow come from publication PMC7819943, “Rice protein-binding microarrays: a tool to detect cis-acting elements near promoter regions in rice”.

The other results are listed elsewhere or left out.

This test concerns the target T1, OsSMF1 (Oryza sativa, UniProt Q6ZLB0 1-436).
T1 sequence: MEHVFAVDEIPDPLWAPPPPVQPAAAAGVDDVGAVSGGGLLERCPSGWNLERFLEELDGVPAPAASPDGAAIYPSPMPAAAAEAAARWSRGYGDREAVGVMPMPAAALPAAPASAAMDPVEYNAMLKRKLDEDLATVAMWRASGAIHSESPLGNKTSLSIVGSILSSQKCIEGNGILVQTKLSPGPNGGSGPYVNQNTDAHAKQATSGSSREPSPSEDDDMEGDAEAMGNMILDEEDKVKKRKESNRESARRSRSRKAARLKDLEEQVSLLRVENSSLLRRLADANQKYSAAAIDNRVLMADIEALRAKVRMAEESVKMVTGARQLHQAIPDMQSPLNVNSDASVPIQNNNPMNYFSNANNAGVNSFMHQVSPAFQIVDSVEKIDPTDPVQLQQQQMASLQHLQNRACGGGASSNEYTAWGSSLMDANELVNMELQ
Briefly: protein-binding microarray (RPBM); PBS, 2% BSA, 51.3 ng/ul salmon testes DNA, 50 uM zinc acetate, 200 nM TF, 25 C, 1 h; high values mean tight binding. The settings on record: protein: recombinant; tags: N-terminal polyhistidine and DsRed monomer fusion (pET32a); chain copies: 2; label: CyDye5-dUTP incorporated in the synthesized complementary strand; 3' TTTTT single-stranded linker to array surface; dsDNA, one strand shown. The method in brief:
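Transcription factors were each fused at the N-terminus to a polyhistidine tag plus DsRed and expressed in E. coli BL21-CodonPlus before Ni–NTA purification. Binding to a double-stranded custom Agilent array was carried out with 200 nM protein at 25 °C for 1 h in PBS, 2% BSA, salmon testes DNA and 50 µM zinc acetate. The binding signal is per-feature fluorescence intensity, in arbitrary units, on an Axon 4000B scanner.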
On to “TATCACTTACGGTGGTTGTTGATGTTAACTGGACCTCGATCGGAGTCACCTAGTGCAG”, for which the binding signal was 3340 fluorescence intensity (a.u.).

Consider “CGACTCCGGCCTTGTTGACGAACGAACGAATGATGCGGAGCGGAGTCACCTAGTGCAG”, for which the binding signal is 23700 fluorescence intensity (a.u.).

With “AATTAGCTAATACTTAATTAATCACGTGCTAATGGATCACCGGAGTCACCTAGTGCAG”, the binding signal was 30100 fluorescence intensity (a.u.).

Regarding “CCGTCTGCCAGCTCACCCCGTCCCCACCTCTCCTCCCTGCCGGAGTCACCTAGTGCAG”, the binding signal was 10500 fluorescence intensity (a.u.).

For “TATGCTAAAGGCGAACACCGAGCGCCCACATCACAACACTCGGAGTCACCTAGTGCAG”, the binding signal is 3520 fluorescence intensity (a.u.).

In the case of “TAAAACAAGAAACAGTGGCGTCAGCTCTTGGAGAACATCCCGGAGTCACCTAGTGCAG”, the binding signal is 3940 fluorescence intensity (a.u.).

Regarding “ACTCCTATGGCGTCCGCTGCCAGCTCCATCTGCCACCATCCGGAGTCACCTAGTGCAG”, the binding signal is 4150 fluorescence intensity (a.u.).

Consider “ATTTCAAGCTCGAGCGAGCCGAGCCTATAACGAGTCGAGTCGGAGTCACCTAGTGCAG”, for which the binding signal is 14200 fluorescence intensity (a.u.).

On to “ATCTCGGCAAAAGTCGAGTCACTCTCTAATATTCTCCACGCGGAGTCACCTAGTGCAG”, for which the binding signal was 3650 fluorescence intensity (a.u.).

Regarding “CGTGATGGTGTTATTTGGTTACATCGGTTTAGAACGGGTTCGGAGTCACCTAGTGCAG”, the binding signal is 3950 fluorescence intensity (a.u.).

Take “GGACCATGAATCCTACGGGAGAAGATGCGCCATCCTTATGCGGAGTCACCTAGTGCAG”: the binding signal was 4720 fluorescence intensity (a.u.).

Turning to “TAAACATATGTAGTCATCCCGACTTTGTACCCGGTGACCGCGGAGTCACCTAGTGCAG”, the binding signal is 3300 fluorescence intensity (a.u.).

For the sequence “CACCCATTGGCTTGGTATGATGTAATGTAAGCTTCATCCACGGAGTCACCTAGTGCAG”, the binding signal was 3200 fluorescence intensity (a.u.).

“CTCTGTACGTTTCGTGCAAACGTGTATAATACGGCAACGCCGGAGTCACCTAGTGCAG”: the binding signal was 3510 fluorescence intensity (a.u.).

On to “GCAATTTCTGTTTCGTTTATATTTGACATTCTCCCTCCGTCGGAGTCACCTAGTGCAG”, for which the binding signal is 4010 fluorescence intensity (a.u.).

In the case of “GGCGGGAAACAGGTGGCGGCGCACCGGTTTCCCCTTTCTGCGGAGTCACCTAGTGCAG”, the binding signal was 3400 fluorescence intensity (a.u.).

With “AACGCGAGTGACGTATCTGCATACGTGGCAGTAGATCGTCCGGAGTCACCTAGTGCAG”, the binding signal is 31400 fluorescence intensity (a.u.).

On to “CTGTTTCTTTCAAGCTACACAGTGTTTAAGCATCATTAGGCGGAGTCACCTAGTGCAG”, for which the binding signal was 27900 fluorescence intensity (a.u.).

As for “ATAAAAGTCCCCTCCACTTCCTCACCAATTAAACAACACCCGGAGTCACCTAGTGCAG”, the binding signal is 21400 fluorescence intensity (a.u.).

As for “ATCGTAGACGCGATGATGGCCCACGTAATCTGATTTGGTTCGGAGTCACCTAGTGCAG”, the binding signal was 4650 fluorescence intensity (a.u.).

For the sequence “AGATTATATCTAACAGCTAATTGAATTTATTGTGTCATGACGGAGTCACCTAGTGCAG”, the binding signal was 3430 fluorescence intensity (a.u.).

For the sequence “CGAAATCTAAATGTTTATGTAGTAGTATAGTATACACTAGCGGAGTCACCTAGTGCAG”, the binding signal is 14400 fluorescence intensity (a.u.).

With “GTCATTTAAAAGTGTCTTGATTTCATGACGTACTACGTATCGGAGTCACCTAGTGCAG”, the binding signal was 5430 fluorescence intensity (a.u.).

As to “TAGGGTTCTCGGAATCGAGCCATCGATTTGAATCCAACCTCGGAGTCACCTAGTGCAG”, the binding signal was 28200 fluorescence intensity (a.u.).

For the sequence “AGCTTATGTACACAAAACATGTTCATGACGCAGATTACATCGGAGTCACCTAGTGCAG”, the binding signal was 5050 fluorescence intensity (a.u.).

For “GTTGAGACAACTAGTGATAAAGTTAACGTGTCAGAGAACGCGGAGTCACCTAGTGCAG”, the binding signal was 4820 fluorescence intensity (a.u.).

For “AATGCTTATATTGGTAGACGGAGGCGATAATCCTTGTCATCGGAGTCACCTAGTGCAG”, the binding signal is 4150 fluorescence intensity (a.u.).

In the case of “ACGCGCCACGTGCGTTAGCGTCCACGTCACACGCTTGCACCGGAGTCACCTAGTGCAG”, the binding signal is 36200 fluorescence intensity (a.u.).

On to “AATCTCGGTGCTGAGTGGACATGAATGAATGATGGAATCTCGGAGTCACCTAGTGCAG”, for which the binding signal is 4150 fluorescence intensity (a.u.).

With “AGGAGGAGGAGGAGGAGGAGGAGGAGGCGGTGGGAGGGATCGGAGTCACCTAGTGCAG”, the binding signal was 4490 fluorescence intensity (a.u.).

Turning to “AAAATAAGGTCAAATATGTATCTTGTAGACCGTGTCATTGCGGAGTCACCTAGTGCAG”, the binding signal is 3210 fluorescence intensity (a.u.).

Take “CAATCCAACCGTCGTCGCGCCGCACACCGGCCACCCACCCCGGAGTCACCTAGTGCAG”: the binding signal is 20700 fluorescence intensity (a.u.).

On to “GAAAATATGTGCCAGGTGGAGCAGTATGTCATTGTCAGGACGGAGTCACCTAGTGCAG”, for which the binding signal was 4880 fluorescence intensity (a.u.).

Turning to “GAGCAGTAATGCGTGTGCGGCGATTGGCACGTGCATGGTGCGGAGTCACCTAGTGCAG”, the binding signal was 3780 fluorescence intensity (a.u.).

In the case of “CGCTCCGTCAGCCACGTAGACGCTACGTCGGCCAAAACCGCGGAGTCACCTAGTGCAG”, the binding signal was 14900 fluorescence intensity (a.u.).

As to “TTAAAGCTGACTAGAGTACTTAGTTTGGTACTTGGATTTACGGAGTCACCTAGTGCAG”, the binding signal is 3580 fluorescence intensity (a.u.).

In the case of “TCTGCTTGGACGCCTCACGCCACCGTGTAATGAGTGAACGCGGAGTCACCTAGTGCAG”, the binding signal is 3210 fluorescence intensity (a.u.).

On to “TAAAGTATGAAATAGTGGTGTTTGCATTGGAAGAGTAGTGCGGAGTCACCTAGTGCAG”, for which the binding signal was 3460 fluorescence intensity (a.u.).

As for “ATTTTATGGAATGTGCCAATGTAGTCGACGCATATGCGTCCGGAGTCACCTAGTGCAG”, the binding signal is 3380 fluorescence intensity (a.u.).

As to “AACTGACGACTTGACAACTCTCATCGGCTAATCTCAGGACCGGAGTCACCTAGTGCAG”, the binding signal is 3340 fluorescence intensity (a.u.).

Take “TGTTGCGCCCTGATTCTGCAGGCACCATGCGAATCGCGGCCGGAGTCACCTAGTGCAG”: the binding signal was 3770 fluorescence intensity (a.u.).

As for “AGATCAGCAAGCGAACTGAATTTAATCAAATGTACTAGTACGGAGTCACCTAGTGCAG”, the binding signal is 23000 fluorescence intensity (a.u.).

As for “ACTATAATTCATGGGATTATGTGCCAGCAGTCATAATATCCGGAGTCACCTAGTGCAG”, the binding signal is 3180 fluorescence intensity (a.u.).

“GTGCTACGGATCTTATATCCACGGTAGATTTGATGTATGTCGGAGTCACCTAGTGCAG”: the binding signal is 3270 fluorescence intensity (a.u.).

For “TCTCCTCCCACTCCCTTGTTCTTGACGAGAAGACGTTCAGCGGAGTCACCTAGTGCAG”, the binding signal was 3390 fluorescence intensity (a.u.).

“TCTGGCAAATTTCTCTCCTTCTGATGATTGGTCAGCAGAGCGGAGTCACCTAGTGCAG”: the binding signal was 3780 fluorescence intensity (a.u.).

“TCCTCCGTGAATTACACGGTACAGTACCTATATGTGTGTGCGGAGTCACCTAGTGCAG”: the binding signal was 4190 fluorescence intensity (a.u.).

Consider “CGCCACCGTCACCGACCGCGCGCGCACGCACGCACACTCCCGGAGTCACCTAGTGCAG”, for which the binding signal was 3390 fluorescence intensity (a.u.).

On to “TAAAATCGCCGGTAACGTGGCGCACGTCCGGCCGCCTGAACGGAGTCACCTAGTGCAG”, for which the binding signal is 4620 fluorescence intensity (a.u.).

As to “GAAGAGAGAGAAGAGGGATGAGTGACGATGACAGGTGGGGCGGAGTCACCTAGTGCAG”, the binding signal was 5720 fluorescence intensity (a.u.).

With “ATACAGGTTACGACGTGTACTACACGTGCACAGTAACGTGCGGAGTCACCTAGTGCAG”, the binding signal is 7550 fluorescence intensity (a.u.).

Regarding “GCCCCACCCTCCCATTACCCTACCTTTGCAAACGCATCGTCGGAGTCACCTAGTGCAG”, the binding signal was 3150 fluorescence intensity (a.u.).

As for “ATCCGCGCCTCCCCTCTCCTCCTCCGCCGGCTGCTTCCCCCGGAGTCACCTAGTGCAG”, the binding signal is 3490 fluorescence intensity (a.u.).

On to “CGTCGTCGGCACCAGGGCCACGGATTACTTCAGCGACGAGCGGAGTCACCTAGTGCAG”, for which the binding signal is 16500 fluorescence intensity (a.u.).
